Laboratory results taken from the supplement of paper PMC10849652.
The list shows a part of the results.

By UniProt entry, the sequences of proteins in these tests, tags left out. Where a name states a change or a piece, a line headed by the entry shows the natural chain unless it says otherwise.
UniProt B2RUZ4: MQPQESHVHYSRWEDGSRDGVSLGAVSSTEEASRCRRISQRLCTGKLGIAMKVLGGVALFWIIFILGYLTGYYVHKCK
UniProt Q8N5G0: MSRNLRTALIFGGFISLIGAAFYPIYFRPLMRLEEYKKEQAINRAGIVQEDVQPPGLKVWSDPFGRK
UniProt P09486: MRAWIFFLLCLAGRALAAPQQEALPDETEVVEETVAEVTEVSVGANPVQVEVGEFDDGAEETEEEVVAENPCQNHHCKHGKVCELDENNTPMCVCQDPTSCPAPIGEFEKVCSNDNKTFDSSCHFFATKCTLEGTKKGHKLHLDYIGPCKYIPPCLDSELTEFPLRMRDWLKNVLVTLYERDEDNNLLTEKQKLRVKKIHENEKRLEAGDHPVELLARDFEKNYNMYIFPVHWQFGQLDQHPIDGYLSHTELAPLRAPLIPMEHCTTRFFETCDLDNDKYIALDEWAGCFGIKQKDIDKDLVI
UniProt P17405: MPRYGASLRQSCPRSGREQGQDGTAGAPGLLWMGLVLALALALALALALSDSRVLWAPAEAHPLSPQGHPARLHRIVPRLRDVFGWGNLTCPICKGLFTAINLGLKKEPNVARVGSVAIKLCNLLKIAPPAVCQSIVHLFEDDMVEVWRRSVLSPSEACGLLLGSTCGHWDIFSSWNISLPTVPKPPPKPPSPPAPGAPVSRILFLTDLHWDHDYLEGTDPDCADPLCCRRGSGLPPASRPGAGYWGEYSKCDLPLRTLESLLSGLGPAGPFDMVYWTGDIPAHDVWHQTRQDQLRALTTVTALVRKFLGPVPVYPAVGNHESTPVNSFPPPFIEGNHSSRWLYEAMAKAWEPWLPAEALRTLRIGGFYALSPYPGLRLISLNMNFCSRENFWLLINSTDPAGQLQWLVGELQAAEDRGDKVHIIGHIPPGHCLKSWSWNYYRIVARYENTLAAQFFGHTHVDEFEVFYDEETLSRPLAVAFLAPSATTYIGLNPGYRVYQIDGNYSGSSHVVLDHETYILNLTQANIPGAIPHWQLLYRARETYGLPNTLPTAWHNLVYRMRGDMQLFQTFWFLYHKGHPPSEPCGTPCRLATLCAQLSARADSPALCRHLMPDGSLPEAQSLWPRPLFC
UniProt Q02086: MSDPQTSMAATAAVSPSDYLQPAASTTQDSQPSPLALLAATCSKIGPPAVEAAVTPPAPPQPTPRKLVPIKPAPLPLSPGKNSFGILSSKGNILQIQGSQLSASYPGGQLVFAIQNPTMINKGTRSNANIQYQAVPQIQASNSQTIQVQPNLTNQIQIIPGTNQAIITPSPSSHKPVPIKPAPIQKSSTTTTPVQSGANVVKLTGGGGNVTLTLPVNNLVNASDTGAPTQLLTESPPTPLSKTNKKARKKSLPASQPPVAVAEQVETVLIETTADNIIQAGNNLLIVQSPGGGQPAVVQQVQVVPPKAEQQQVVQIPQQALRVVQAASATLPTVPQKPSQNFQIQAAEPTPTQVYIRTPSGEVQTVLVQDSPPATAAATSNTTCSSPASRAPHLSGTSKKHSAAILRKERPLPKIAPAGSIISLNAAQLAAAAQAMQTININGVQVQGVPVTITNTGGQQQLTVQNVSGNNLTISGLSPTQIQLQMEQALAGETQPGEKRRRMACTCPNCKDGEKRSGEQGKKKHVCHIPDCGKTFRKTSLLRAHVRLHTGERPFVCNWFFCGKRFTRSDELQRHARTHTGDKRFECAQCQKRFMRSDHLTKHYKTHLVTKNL
UniProt Q9Y5X0: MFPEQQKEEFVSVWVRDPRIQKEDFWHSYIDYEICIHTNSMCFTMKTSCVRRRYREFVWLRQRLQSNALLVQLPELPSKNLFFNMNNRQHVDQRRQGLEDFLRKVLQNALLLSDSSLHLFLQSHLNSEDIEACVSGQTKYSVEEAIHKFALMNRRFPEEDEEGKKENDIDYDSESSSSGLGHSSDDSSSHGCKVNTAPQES
UniProt O00161: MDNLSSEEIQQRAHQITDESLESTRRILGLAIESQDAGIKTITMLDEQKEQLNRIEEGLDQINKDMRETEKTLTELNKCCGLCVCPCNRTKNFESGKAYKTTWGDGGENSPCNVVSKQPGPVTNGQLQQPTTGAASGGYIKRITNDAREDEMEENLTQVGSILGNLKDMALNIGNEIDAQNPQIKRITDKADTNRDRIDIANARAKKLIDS
UniProt O60906: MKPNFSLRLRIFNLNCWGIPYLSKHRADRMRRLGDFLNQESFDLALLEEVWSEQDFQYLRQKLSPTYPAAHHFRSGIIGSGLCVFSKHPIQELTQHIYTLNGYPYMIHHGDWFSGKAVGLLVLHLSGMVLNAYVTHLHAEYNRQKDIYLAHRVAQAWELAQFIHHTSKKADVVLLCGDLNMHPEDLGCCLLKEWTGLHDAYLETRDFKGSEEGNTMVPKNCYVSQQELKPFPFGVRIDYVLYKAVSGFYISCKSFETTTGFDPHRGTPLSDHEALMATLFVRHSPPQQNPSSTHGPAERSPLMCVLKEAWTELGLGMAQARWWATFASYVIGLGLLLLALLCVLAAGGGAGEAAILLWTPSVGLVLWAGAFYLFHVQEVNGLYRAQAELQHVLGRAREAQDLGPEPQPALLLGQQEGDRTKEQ
UniProt Q16533: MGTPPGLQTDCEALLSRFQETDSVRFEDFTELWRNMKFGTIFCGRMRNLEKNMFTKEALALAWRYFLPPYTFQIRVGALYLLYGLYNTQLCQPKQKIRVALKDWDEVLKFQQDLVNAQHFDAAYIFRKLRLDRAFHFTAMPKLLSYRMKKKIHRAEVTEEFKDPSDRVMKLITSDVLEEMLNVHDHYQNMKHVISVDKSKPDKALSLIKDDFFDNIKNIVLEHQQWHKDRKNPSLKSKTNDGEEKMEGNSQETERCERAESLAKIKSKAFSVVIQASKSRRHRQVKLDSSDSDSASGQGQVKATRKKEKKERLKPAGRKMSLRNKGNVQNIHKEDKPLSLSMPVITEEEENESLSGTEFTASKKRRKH
UniProt P0DJ93: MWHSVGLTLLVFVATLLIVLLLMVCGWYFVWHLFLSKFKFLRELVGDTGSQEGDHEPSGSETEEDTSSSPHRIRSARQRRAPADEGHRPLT
UniProt Q86T20: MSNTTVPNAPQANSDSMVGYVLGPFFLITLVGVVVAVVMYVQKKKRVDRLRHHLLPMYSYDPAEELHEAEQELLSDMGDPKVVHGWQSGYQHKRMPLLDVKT
UniProt Q8TEQ0: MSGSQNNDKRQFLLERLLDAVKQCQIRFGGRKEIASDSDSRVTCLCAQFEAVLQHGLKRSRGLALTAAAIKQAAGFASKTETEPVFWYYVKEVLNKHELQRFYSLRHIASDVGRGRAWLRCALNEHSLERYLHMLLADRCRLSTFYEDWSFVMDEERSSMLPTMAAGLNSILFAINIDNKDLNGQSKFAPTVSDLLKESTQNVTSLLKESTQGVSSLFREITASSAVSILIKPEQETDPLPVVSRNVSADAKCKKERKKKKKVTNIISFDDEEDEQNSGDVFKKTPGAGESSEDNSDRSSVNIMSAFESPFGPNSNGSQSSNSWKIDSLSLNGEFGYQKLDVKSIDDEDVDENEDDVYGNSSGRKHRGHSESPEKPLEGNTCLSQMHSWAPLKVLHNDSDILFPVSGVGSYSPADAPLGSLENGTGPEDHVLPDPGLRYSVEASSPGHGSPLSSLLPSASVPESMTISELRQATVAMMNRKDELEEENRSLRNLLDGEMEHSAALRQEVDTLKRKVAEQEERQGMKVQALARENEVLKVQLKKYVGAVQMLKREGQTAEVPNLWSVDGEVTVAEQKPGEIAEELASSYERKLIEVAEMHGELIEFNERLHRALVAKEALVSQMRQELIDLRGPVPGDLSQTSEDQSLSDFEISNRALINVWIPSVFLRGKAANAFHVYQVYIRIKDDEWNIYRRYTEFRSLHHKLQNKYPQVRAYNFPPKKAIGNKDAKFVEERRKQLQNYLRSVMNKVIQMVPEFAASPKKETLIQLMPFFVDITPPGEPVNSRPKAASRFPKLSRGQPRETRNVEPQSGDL
UniProt Q16560: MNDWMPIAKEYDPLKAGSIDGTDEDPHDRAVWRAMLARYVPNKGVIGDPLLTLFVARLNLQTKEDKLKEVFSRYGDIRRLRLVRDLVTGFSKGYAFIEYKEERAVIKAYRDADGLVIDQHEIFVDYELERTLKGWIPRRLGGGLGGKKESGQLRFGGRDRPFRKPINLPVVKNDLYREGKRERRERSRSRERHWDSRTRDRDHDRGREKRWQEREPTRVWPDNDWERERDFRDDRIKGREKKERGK
UniProt Q9H3E2: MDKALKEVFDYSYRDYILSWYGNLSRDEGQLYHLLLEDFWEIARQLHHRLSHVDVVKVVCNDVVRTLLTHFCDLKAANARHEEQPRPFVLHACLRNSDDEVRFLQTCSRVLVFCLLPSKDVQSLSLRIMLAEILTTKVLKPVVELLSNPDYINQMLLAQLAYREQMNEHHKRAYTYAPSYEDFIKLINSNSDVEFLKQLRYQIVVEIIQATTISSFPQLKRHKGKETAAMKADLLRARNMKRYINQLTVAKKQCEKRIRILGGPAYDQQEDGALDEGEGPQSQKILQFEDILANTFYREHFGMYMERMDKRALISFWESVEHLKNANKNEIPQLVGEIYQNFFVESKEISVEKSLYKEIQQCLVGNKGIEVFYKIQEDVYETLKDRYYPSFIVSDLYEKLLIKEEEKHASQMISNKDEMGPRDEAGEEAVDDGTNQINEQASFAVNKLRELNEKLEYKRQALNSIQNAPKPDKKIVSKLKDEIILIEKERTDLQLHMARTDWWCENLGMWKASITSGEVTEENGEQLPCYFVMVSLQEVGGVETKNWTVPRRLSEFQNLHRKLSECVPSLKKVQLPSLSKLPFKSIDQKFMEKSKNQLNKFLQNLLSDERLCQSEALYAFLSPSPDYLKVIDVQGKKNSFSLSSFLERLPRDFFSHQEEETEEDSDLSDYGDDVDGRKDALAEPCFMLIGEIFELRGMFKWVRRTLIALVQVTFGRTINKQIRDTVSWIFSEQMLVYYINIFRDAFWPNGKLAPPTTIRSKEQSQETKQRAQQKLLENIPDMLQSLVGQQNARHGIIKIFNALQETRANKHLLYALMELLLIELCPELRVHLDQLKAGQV
UniProt Q8TAD8: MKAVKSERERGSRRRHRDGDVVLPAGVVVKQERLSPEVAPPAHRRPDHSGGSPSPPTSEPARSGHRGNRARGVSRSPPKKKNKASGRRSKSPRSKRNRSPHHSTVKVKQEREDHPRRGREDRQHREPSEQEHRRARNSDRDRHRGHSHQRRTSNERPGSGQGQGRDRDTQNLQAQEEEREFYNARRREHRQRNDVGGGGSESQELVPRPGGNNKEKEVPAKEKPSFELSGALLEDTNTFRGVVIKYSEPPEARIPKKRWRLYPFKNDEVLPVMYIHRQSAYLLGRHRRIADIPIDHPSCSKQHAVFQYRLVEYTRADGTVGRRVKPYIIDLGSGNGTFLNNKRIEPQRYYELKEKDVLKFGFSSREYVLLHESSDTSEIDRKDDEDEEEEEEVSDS
UniProt Q8IYR2: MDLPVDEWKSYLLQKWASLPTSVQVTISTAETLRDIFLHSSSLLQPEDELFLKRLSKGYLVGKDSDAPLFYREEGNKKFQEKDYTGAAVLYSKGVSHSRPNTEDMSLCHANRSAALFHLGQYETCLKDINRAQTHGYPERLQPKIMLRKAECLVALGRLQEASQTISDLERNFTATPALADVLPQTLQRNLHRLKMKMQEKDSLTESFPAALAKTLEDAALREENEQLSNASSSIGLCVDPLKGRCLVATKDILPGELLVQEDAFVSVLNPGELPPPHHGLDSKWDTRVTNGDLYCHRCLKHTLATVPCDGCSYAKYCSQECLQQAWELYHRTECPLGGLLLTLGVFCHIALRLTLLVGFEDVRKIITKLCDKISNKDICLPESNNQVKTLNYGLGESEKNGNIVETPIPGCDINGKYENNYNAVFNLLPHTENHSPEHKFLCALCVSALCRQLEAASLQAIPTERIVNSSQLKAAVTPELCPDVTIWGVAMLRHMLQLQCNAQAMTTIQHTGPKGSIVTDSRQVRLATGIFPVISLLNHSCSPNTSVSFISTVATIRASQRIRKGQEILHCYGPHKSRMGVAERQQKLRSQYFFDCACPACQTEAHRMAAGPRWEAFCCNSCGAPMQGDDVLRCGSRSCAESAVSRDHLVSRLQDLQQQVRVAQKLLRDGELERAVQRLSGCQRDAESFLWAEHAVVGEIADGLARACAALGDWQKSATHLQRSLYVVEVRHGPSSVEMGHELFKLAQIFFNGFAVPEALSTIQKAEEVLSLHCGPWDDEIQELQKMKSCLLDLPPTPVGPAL
UniProt Q7Z3B0: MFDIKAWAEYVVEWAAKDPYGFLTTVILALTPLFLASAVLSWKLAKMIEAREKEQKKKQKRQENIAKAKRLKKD
UniProt Q96E16: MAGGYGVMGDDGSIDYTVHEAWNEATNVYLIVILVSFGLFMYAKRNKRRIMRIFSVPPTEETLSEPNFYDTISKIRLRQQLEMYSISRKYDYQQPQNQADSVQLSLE
UniProt P02814: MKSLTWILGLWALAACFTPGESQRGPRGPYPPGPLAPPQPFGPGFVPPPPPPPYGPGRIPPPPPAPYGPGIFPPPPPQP
UniProt O75971: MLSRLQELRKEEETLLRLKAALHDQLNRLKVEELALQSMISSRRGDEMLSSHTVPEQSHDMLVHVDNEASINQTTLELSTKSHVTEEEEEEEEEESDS

Columns and labels:
Assay in all cases: log2 fold change, soluble protein after heating vs DMSO (PISA); higher = thermal stabilisation; K562 lysate, 10 uM; active = over 0.2 and 3.5 SD of the protein, either way, in both replicates (recomputed)
ibrutinib = compound: C=CC(=O)N1CCC[C@@H](n2nc(-c3ccc(Oc4ccccc4)cc3)c3c(N)ncnc32)C1 [ibrutinib]
In short: (§1)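 Following dounce homogenisation of K562 pellets in PBS pH 7.4 with 1 mM MgCl2, crude extract at 1 mg/mL protein was incubated for 30 min with 10 μM compound. Aliquots were then heated for 3 min over 48°C-58°C and pooled, NP-40 was added to 0.5% at 4°C, and soluble protein was recovered as the supernatant at 21,000xg for 90 min. Channel-sum-equalised TMTpro 16plex LC-MS/MS quantified this protein. Each value, from duplicates, is a log-two fold change in thermal stability relative to solvent controls.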

[1] = compound: CC(=O)c1cnc2ccc(-c3cc(Cl)c(O)c(Cl)c3)nc2c1N[C@H]1CC[C@H](CN(C)C)CC1
In short: as §1

ralimetinib = compound: CC(C)(C)Cn1c(N)nc2ccc(-c3[nH]c(C(C)(C)C)nc3-c3ccc(F)cc3)nc21 [ralimetinib]
In short: as §1

[2] = compound: CC(C)(O)CC(=O)NCCn1ccc2ncnc(Nc3ccc(Oc4cccc(C(F)(F)F)c4)c(Cl)c3)c21
In short: as §1

[3] = compound: CC(C)C1=C2N=C(C=C(N2N=C1)NCC3=CC=CC=C3)NCCCCCCN
In short: as §1

[4] = compound: CC1=C(C(CC(=O)N1)C2=CC=C(C=C2)C(F)(F)F)C(=O)NC3=C(C=C4C(=C3)C=NN4)F
In short: as §1

[5] = compound: CC1=C(C=C(C=C1)NC(=O)C2=CC(=CC=C2)C(C)(C)C#N)NC3=CC4=C(C=C3)N=CN(C4=O)C
In short: as §1

[6] = compound: CC1=C(C=C(C=C1)NC(=O)C2=CC(=CC=C2)N(C)C)NC(=O)C3=CC=C(C=C3)O
In short: as §1

[7] = compound: CC1=CC=C(C=C1)SC2=C3C=C(SC3=CN=C2)C(=O)N
In short: as §1

[8] = compound: CC1=C(C2=C(C=C1)C(=O)C3=CC=CC=C3N2CCCN)C
In short: as §1

Measured: log2 fold change

SMIM1 (UniProt B2RUZ4)
inactive: ibrutinib 0.018 | [1] 0.005 | ralimetinib 0.054 | [2] 0.036 | [3] 0.081 | [4] -0.132 | [5] -0.042 | [6] -0.021 | [7] 0.058

SMIM20 isoform 2 (UniProt Q8N5G0)
inactive: ibrutinib 0.033 | [1] -0.06 | [3] 0.099 | [4] 0.045 | [8] 0 | [5] -0.062 | [7] 0.025

SPARC (UniProt P09486)
inactive: ibrutinib -0.051 | ralimetinib -0.03 | [2] -0.1 | [3] -0.083 | [8] -0.084 | [5] -0.062 | [6] 0.012

SMPD1 (UniProt P17405)
inactive: ibrutinib 0.002 | ralimetinib -0.038 | [2] -0.065 | [3] -0.032 | [4] 0.004 | [8] -0.109 | [5] -0.096 | [6] -0.035

SNX13 (UniProt Q9Y5W8)
inactive: ibrutinib -0.056 | ralimetinib 0.053 | [2] -0.047 | [3] -0.04 | [8] -0.021 | [5] -0.012 | [6] -0.006

SNX4 (UniProt O95219)
inactive: ibrutinib -0.018 | ralimetinib -0.056 | [2] -0.092 | [3] -0.023 | [4] 0.047 | [8] 0.006 | [5] -0.101 | [6] -0.054

SMUG1 (UniProt Q53HV7)
inactive: ibrutinib 0.009 | [1] 0.026 | ralimetinib 0.133 | [2] -0.035 | [3] -0.125 | [4] -0.011 | [8] -0.206 | [6] -0.01 | [7] -0.035

SNAP47 (UniProt Q5SQN1)
inactive: ibrutinib 0.138 | ralimetinib 0.012 | [2] -0.033 | [3] 0.003 | [4] 0.088 | [8] 0.031 | [5] 0.073 | [6] 0.011

SNX19 (UniProt Q92543)
inactive: ralimetinib -0.045 | [2] -0.08 | [3] -0.005 | [4] 0.029 | [8] -0.234 | [5] -0.076 | [6] 0.096

SP2 (UniProt Q02086)
inactive: ibrutinib 0.096 | [4] 0.089 | [8] -0.022 | [5] 0.033

SNX10 (UniProt Q9Y5X0)
inactive: ralimetinib -0.055 | [2] 0.081 | [3] 0.002 | [8] -0.076 | [5] -0.017 | [6] 0.068

SNAP23 isoform 2 (UniProt O00161)
inactive: [1] -0.045 | ralimetinib -0.071 | [2] 0.095 | [3] -0.029 | [4] 0.306 | [6] 0.027 | [7] 0.028

SMPD2 (UniProt O60906)
inactive: [1] 0.01 | ralimetinib -0.03 | [2] 0.067 | [3] 0.388 | [8] 0.077 | [6] -0.113 | [7] 0.058

SOSTDC1 isoform 2 (UniProt Q6X4U4)
inactive: [8] -0.03

SMPDL3A (UniProt Q92484)
inactive: [1] 0.1 | [7] 0.114

SMIM11A (UniProt P58511)
inactive: [1] -0.05 | [5] -0.275 | [7] 0.063

SNX18 isoform 2 (UniProt Q96RF0)
inactive: [1] 0.061 | [3] 0.015 | [4] 0.016 | [5] -0.197 | [7] 0.154

SNAPC1 (UniProt Q16533)
inactive: [4] -0.058 | [5] 0.016

SMIM13 (UniProt P0DJ93)
inactive: [3] 0.081 | [5] 0.037

SON isoform 6 (UniProt P18583)
inactive: ralimetinib -0.038 | [2] 0.03 | [4] -0.147 | [6] 0.059

SMIM29 (UniProt Q86T20)
inactive: [1] -0.084 | [7] -0.038

SMPDL3B (UniProt Q92485)
inactive: [1] -0.013 | ralimetinib 0.126 | [2] -0.016 | [8] -0.076 | [5] 0.022 | [6] 0.087 | [7] 0.069

SMARCA4 isoform 4 (UniProt P51532)
inactive: [1] 0.044 | ralimetinib 0.051 | [2] -0.022 | [3] -0.337 | [4] 0.093 | [8] -0.018 | [5] -0.107 | [6] 0.192 | [7] 0.041

SNX29 (UniProt Q8TEQ0)
inactive: ralimetinib 0.155 | [2] 0.031 | [3] 0.097 | [4] -0.02 | [5] 0.074 | [6] -0.191

SNRNP35 isoform 2 (UniProt Q16560)
inactive: [4] 0.055 | [8] -0.103

SNX25 (UniProt Q9H3E2)
inactive: ralimetinib -0.118 | [2] 0.042 | [3] -0.004 | [8] -0.011 | [5] -0.155 | [6] 0.004

SP6 (UniProt Q3SY56)
inactive: [1] 0.007 | ralimetinib -0.03 | [2] -0.034 | [3] -0.037 | [4] -0.131 | [8] -0.147 | [5] 0.067 | [6] -0.05 | [7] -0.023

SNIP1 (UniProt Q8TAD8)
inactive: [4] -0.062

SMYD4 (UniProt Q8IYR2)
inactive: ralimetinib 0 | [2] 0.021 | [3] 0.092 | [8] 0.171 | [5] -0.215 | [6] 0.006

SMIM26, A0A096LP01
inactive: ralimetinib 0.163 | [2] -0.03 | [4] 0.003 | [6] -0.125

SMIM15 (UniProt Q7Z3B0)
inactive: [1] -0.065 | ralimetinib 0.129 | [2] -0.148 | [3] 0.029 | [4] -0.011 | [8] -0.047 | [5] -0.011 | [6] -0.001 | [7] -0.005

SMIM19 (UniProt Q96E16)
inactive: ralimetinib -0.042 | [2] -0.332 | [6] -0.285

SMARCD3 (UniProt Q6STE5)
inactive: [3] -0.066 | [8] -0.124

SMR3B (UniProt P02814)
inactive: ralimetinib -0.012 | [2] 0.291 | [5] 0.056 | [6] -0.075

SNRPA1 (UniProt H0YMA0)
inactive: [1] -0.068 | [7] 0.08

SOX12 (UniProt O15370)
inactive: ibrutinib -0.02 | [8] 0.047 | [5] -0.037

SNAPC5 (UniProt O75971)
inactive: [4] 0.064

SNRPD2 (UniProt K7EJB5)
inactive: [1] -0.004 | ralimetinib 0.142 | [2] -0.075 | [3] 0.014 | [4] 0.052 | [8] -0.022 | [5] -0.011 | [6] 0.069 | [7] -0.01

SNRPN isoform 2 (UniProt P63162)
inactive: [1] -0.057 | [3] -0.259 | [5] -0.098 | [7] -0.023

Taken from the results shown (eight entries):
SMYD4 (UniProt Q8IYR2)
inactive: ralimetinib 0 | [2] 0.021 | [3] 0.092 | [8] 0.171 | [5] -0.215 | [6] 0.006

SMIM26, A0A096LP01
inactive: ralimetinib 0.163 | [2] -0.03 | [4] 0.003 | [6] -0.125

SMIM15 (UniProt Q7Z3B0)
inactive: [1] -0.065 | ralimetinib 0.129 | [2] -0.148 | [3] 0.029 | [4] -0.011 | [8] -0.047 | [5] -0.011 | [6] -0.001 | [7] -0.005

SMIM19 (UniProt Q96E16)
inactive: ralimetinib -0.042 | [2] -0.332 | [6] -0.285

SMARCD3 (UniProt Q6STE5)
inactive: [3] -0.066 | [8] -0.124

SMR3B (UniProt P02814)
inactive: ralimetinib -0.012 | [2] 0.291 | [5] 0.056 | [6] -0.075

SNRPA1 (UniProt H0YMA0)
inactive: [1] -0.068 | [7] 0.08

SOX12 (UniProt O15370)
inactive: ibrutinib -0.02 | [8] 0.047 | [5] -0.037

(continued)

SMOX isoform 6 (UniProt Q9NWM0)
inactive: [1] 0.128 | [3] 0.055 | [8] -0.045 | [7] -0.2

SOX11 (UniProt P35716)
inactive: [1] 0.081 | [5] 0.011 | [7] -0.145
